Assay results reported in patent US10792384B2, “Rolled fibrous structures comprising encapsulated malodor reduction compositions” (The Procter & Gamble Company, priority 2017, dated 2020).

Test: Fragrance Fidelity Index (FFI), expert graders smelling treated fabric swatches against ethyl vanillin reference scale
[1] = test material 50 ppm, 13 μL on swatch, scale 0-3
[2] = test material 10 ppm, 13 μL on swatch, scale 0-3
[3] = Conc 10 ppm of test material on fabric swatch
[4] = Conc 50 ppm of test material on fabric swatch

Structure (SMILES)	FFI [1]	FFI [2]	FFI [3]	FFI [4]
C=C/C(C)=C\CC=C(C)C [Material 524]	0	–	–	–
CC1(C)C2CCC3(C2)C1C(=O)CCC3(C)C (stereo not drawn) [Material 1149]	0.8	0	–	–
CCCCCCCCCCCO [Undecanol]	0.8	–	–	–
CCC(O)COC1CCCCC1C(C)(C)C (stereo not drawn) [Material 677]	1.8	0	–	–
O=C1CCC2CCCCC2O1 (stereo not drawn) [3,4,4a,5,6,7,8,8a-octahydrochromen-2-one]	0	0	–	–
CC(=O)OC1CC2CC1C1CC=CC21 (stereo not drawn) [Material 281]	0.5	0	–	–
CC(C)(C)C1CCCCC1 [4-tert-butyl cyclohexane]	0.3	0	–	–
CC1(C)CCc2ccc(CCC=O)cc21	–	–	0	0.5
CCCCCCCCCCCCO [Material 174]	0.5	–	–	–
CCCCCCCCCCCC(=O)OCC [Material 391]	0.3	–	–	–
CCOC(=O)OC1C(C)CCC(C)C1C (stereo not drawn) [Material 1005]	0.5	–	–	–
CCC(=O)OC1CC2C3C=CCC3C1C2(C)C (stereo not drawn)	–	–	0	0
C=C1CCC2OC2(C)CCC2C1CC2(C)C (stereo not drawn) [Material 1148]	0.5	–	–	–
CC1CCC2(C(C)C)CC(C)OC2C1 (stereo not drawn)	–	–	–	0.3
CC1(C)CCc2ccc(CCC=O)cc21 [Material 261]	1.3	0	–	–
CC(CCO)CCc1ccccc1 (stereo not drawn) [Material 962]	0.5	0	–	–
COC(=O)OC1CCC=CCCC1 (stereo not drawn) [Material 1139]	1.0	0	–	–
